Laboratory results: paper PMC10204490, “Incubation Time Influences Organic Anion Transporter 1 Kinetics and Renal Clearance Predictions” (Journal of Xenobiotics, 2023)

Experiments:
OAT1 [1] = conditions: cited from earlier work
OAT1 [2] = target: T1, OAT1 (Homo sapiens, UniProt Q4U2R8); experiment: Inhibition of [3H]PAH uptake into CHO-OAT1 cells (IC50 determination); conditions: IC50 for inhibition of [3H]PAH uptake, [3H]PAH 20 nM, mean ± SEM, n=4
T1 sequence (Q4U2R8 1-563): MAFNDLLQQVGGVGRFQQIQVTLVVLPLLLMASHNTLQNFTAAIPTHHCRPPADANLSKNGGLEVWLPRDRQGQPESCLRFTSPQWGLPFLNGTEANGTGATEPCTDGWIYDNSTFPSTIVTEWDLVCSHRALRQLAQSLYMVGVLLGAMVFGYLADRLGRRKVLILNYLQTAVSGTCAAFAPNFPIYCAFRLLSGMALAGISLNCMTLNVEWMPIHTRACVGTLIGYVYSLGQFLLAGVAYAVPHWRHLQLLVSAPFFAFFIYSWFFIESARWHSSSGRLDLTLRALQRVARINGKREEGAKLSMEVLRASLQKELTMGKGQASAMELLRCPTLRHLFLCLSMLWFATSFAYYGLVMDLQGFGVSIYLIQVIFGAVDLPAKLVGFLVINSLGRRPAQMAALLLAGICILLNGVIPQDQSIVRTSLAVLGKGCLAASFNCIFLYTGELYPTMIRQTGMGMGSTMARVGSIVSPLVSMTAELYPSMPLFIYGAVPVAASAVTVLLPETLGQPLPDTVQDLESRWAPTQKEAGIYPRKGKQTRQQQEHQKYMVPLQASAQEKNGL

IC50 (OAT1 [2]; 15 sec incubation): 19.6 ± 3 µM | IC50 (OAT1 [2]; 10 min incubation): 15.1 ± 2.2 µM
Compound: NS(=O)(=O)c1cc(C(=O)O)c(NCc2ccco2)cc1Cl [Furosemide, furosemide]
Inhibition mechanism at OAT1 (OAT1 [1]): competitive
